From publication doi:10.1101/2023.02.03.527076
Results are given in words; binding and its absence hold for the method and conditions named. For some assays here: In cells and extracts the contact can be indirect. Some results given as binding are weak or reduced against the parent protein; the word gives no strength. For some assays here: Tags and fused reporters may be left off the sequences shown.

By UniProt entry, the sequences of proteins in these tests, tags left out. Where a name states a change or a piece, a line headed by the entry shows the natural chain unless it says otherwise.
UniProt Q3E8W4: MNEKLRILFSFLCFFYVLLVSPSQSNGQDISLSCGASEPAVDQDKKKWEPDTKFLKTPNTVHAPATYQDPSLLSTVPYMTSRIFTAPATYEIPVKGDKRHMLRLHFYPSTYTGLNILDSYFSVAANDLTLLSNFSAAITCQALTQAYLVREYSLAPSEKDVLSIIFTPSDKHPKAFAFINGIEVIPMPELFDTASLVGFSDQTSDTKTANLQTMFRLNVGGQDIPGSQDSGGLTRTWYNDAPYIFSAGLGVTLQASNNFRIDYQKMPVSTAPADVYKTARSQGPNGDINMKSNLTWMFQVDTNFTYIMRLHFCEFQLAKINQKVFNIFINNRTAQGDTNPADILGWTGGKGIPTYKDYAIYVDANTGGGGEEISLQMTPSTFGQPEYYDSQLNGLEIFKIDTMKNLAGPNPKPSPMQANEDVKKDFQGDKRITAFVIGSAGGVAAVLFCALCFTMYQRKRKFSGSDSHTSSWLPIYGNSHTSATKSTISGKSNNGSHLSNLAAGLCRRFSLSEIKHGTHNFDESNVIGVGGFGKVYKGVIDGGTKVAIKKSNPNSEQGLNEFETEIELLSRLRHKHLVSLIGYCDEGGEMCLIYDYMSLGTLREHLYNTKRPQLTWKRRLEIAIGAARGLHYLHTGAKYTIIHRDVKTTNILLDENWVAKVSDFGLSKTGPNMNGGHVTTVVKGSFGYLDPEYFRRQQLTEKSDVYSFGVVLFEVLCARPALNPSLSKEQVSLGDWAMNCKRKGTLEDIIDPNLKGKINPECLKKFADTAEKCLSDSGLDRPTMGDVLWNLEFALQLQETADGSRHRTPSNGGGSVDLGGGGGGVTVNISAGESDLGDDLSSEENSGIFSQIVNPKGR

T1: AtSYP31 (yeast two-hybrid fusion) (Arabidopsis thaliana) (UniProt Q9FFK1)
T1 sequence: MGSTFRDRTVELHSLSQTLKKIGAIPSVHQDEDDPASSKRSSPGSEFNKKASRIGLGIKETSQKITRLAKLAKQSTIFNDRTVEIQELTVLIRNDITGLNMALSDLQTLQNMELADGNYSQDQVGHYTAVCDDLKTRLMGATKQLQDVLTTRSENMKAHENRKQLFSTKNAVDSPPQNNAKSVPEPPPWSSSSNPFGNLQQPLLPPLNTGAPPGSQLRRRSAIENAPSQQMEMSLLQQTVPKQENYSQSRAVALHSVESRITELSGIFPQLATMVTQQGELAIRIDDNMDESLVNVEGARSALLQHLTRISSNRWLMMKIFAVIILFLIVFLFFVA

T2: AtSYP32 (yeast two-hybrid fusion) (Arabidopsis thaliana) (UniProt Q9LK09)
T2 sequence: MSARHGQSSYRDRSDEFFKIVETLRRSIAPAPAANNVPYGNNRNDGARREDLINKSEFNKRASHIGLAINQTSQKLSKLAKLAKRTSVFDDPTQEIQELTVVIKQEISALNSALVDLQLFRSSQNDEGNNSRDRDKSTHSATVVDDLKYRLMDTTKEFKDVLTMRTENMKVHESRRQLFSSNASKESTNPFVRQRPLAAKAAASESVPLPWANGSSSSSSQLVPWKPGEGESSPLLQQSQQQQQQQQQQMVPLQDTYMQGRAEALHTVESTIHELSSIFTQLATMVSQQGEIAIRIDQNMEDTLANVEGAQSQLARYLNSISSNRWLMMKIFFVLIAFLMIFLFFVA


Key:
[1] = target: LUC^N-AtSYP32 (Arabidopsis thaliana) (UniProt Q9LK09); test: split reporter
[2] = target: T1, AtSYP31 (yeast two-hybrid fusion) (Arabidopsis thaliana); test: two-hybrid
[3] = target: T2, AtSYP32 (yeast two-hybrid fusion) (Arabidopsis thaliana); test: two-hybrid

Molecule | binding [2] | binding [3] | binding [1]
LUC^C-BET12 (from UniProt Q94CG2 1-130) | – | – | binds
ANX2 (yeast two-hybrid fusion) (from UniProt Q3E8W4 1-858) (receptor) | no binding | binds | –
LUC^C-ANX2 (from UniProt Q3E8W4 28-858) (receptor) | – | – | no binding
LUC^C-XXT5 (from UniProt Q9CA75 1-457) (enzyme) | – | – | binds
GOS11 (yeast two-hybrid fusion) (protein, UniProt Q9LMP7 1-223) MDVPSSWDALRKQARKIEAQLDEQMHSYRRLVSTKALSKSDGNESDLEAGIDLLLRQLQQVNAQMQAWVSSGGSEMVSHTLTRHQEILQDLTQEFYRHRSSLRAKQEHASLLEDFREFDRTRLDLEDGYGSEQALIKEHMGINRNTAQMDGVISQAQATLGTLVFQRSTFGGINSKLSNVASRLPTVNTILAAIKRKKSMDTIILSLVAAVCTFLIFIYWITK | – | binds | –
BET11 (yeast two-hybrid fusion) (protein, UniProt Q9M2J9 1-122) MNPRREPRGGRSSLFDGIEEGGIRAASSYSHEINEHENERALEGLQDRVILLKRLSGDINEEVDTHNRMLDRMGNDMDSSRGFLSGTMDRFKTVFETKSSRRMLTLVASFVGLFLVIYYLTR | no binding | binds | –
BET12 (yeast two-hybrid fusion) (protein, UniProt Q94CG2 1-130) MNFRRENRASRTSLFDGLDGLEEGRLRASSSYAHDERDNDEALENLQDRVSFLKRVTGDIHEEVENHNRLLDKVGNKMDSARGIMSGTINRFKLVFEKKSNRKSCKLIAYFVLLFLIMYYLIRLLNYIKG | no binding | binds | –

Now from value to molecule, other results behind:

binding [2] | binding [3] | Molecule | binding [1]
no binding | binds | MEMB11 (yeast two-hybrid fusion) (protein, UniProt Q9SJL6 1-225) MASGIVEGGGSLSDVYSSAKRILLKARDGIERLERFESSSMDSPDLASSVKRDITEVRSLCSNMDTLWRSIPVKSQRDLWRRKTEQVGEEAEYLNLSLEKYMSRNQRKMLEAKERADLLGRASGEGAHILQIFDEEAQAMSSVKNSKRMLEESFSSGVAILSKYAEQRDRLKSAQRKALDVLNTVGLSNSVLRLIERRNRVDTWIKYAGMIATLVILYLFIRWTR | –
– | binds | MEMB12 (yeast two-hybrid fusion) (protein, UniProt Q9FK28 1-219) MASGTVGGLSEVYSSAKRILLRARNGIEKLERFDSDPTDLASSVKRDITEVQSLCSNMDGLWRSIPVKSQRDLWRRKSEQVGEEAEYLNQSLEKYMWRNQRKMLEAKERADLLGRGSGEGAHILQIFDEEAQGMNSVKNSKRMLEDSFQSGVAILSKYAEQRDRLKSAQRKALDVLNTVGLSNSVLRLIERRNRVDTWIKYAGMIATLVILYLFIRWTR | –
– | binds | GOS12 (yeast two-hybrid fusion) (protein, UniProt O22151 1-257) MTESSLDLQESGWEELRREARKIEGDLDVKLSSYAKLGARFTQGDTDLVMNYEKVLKCVLVSGYVDTGSPTVGSGRSWKSMEMEIQSLLEKLLDINDSMSRCAASAAPTTSVTQKLARHRDILHEYTQEFRRIKGNINSLREHAELLSSVRDDISEYKASGSMSPGVQVLRERASIHGSISHIDDVIGQAQATRAVLGSQRSLFSDVQGKVKNLGDKFPVIRGLLGSIKRKRSRDTLILSAVIAACTLFLIIYWLSK | –
– | binds | SFT11 (yeast two-hybrid fusion) (protein, UniProt Q8VXX9 1-137) MASNPHRSGAGGSLYGGAAPYRSREGLSTRNAAGSEEIQLRIDPMHSDLDDEITGLHGQVRQLKNIAQEIGSEAKFQRDFLDELQMTLIRAQAGVKNNIRKLNMSIIRSGNNHIMHVVLFALLVFFVLYIWSKMFKR | –
– | binds | SFT12 (yeast two-hybrid fusion) (protein, UniProt Q8L9S0 1-134) MASNRGAGGSLYGGADPYRSREGLSTRNASGSEEIQLRIDPMHSDLDDEILGLHGQVRQLKNIAQEIGSEAKSQRDFLDELQMTLIRAQAGVKNNIRKLNLSIIRSGNNHIMHVVLFALLLFFILYMWSKMFKR | –
– | binds | VAMP714 (yeast two-hybrid fusion) (protein, UniProt Q9FMR5 1-221) MAIVYAVVARGTVVLAEFSAVTGNTGAVVRRILEKLSPEISDERLCFSQDRYIFHILRSDGLTFLCMANDTFGRRVPFSYLEEIHMRFMKNYGKVAHNAPAYAMNDEFSRVLHQQMEFFSSNPSVDTLNRVRGEVSEIRSVMVENIEKIMERGDRIELLVDKTATMQDSSFHFRKQSKRLRRALWMKNAKLLVLLTCLIVFLLYIIIASFCGGITLPSCRS | –
no binding | binds | SEC22 (yeast two-hybrid fusion) (protein, UniProt Q94AU2 1-218) MVKMTLIARVTDGLPLAEGLDDGRDLPDSDMYKQQVKALFKNLSRGQNDASRMSVETGPYVFHYIIEGRVCYLTMCDRSYPKKLAFQYLEDLKNEFERVNGPNIETAARPYAFIKFDTFIQKTKKLYQDTRTQRNIAKLNDELYEVHQIMTRNVQEVLGVGEKLDQVSEMSSRLTSESRIYADKAKDLNRQALIRKWAPVAIVFGVVFLLFWVKNKLW | –
binds | binds | SEC31B (yeast two-hybrid fusion) (protein, UniProt Q8L611 1-1104) MACIKGVGRSASVALAPDAPYMAAGTMAGAVDLSFSSSANLEIFKLDFQSDDRDLPLVGEIPSSERFNRLAWGRNGSGSEEFALGLIAGGLVDGNIDLWNPLSLIGSQPSENALVGHLSVHKGPVRGLEFNAISSNLLASGADDGEICIWDLLKPSEPSHFPLLKGSGSATQGEISFISWNRKVQQILASTSYNGTTVIWDLRKQKPIINFADSVRRRCSVLQWNPNVTTQIMVASDDDSSPTLKLWDMRNIMSPVREFTGHQRGVIAMEWCPSDSSYLLTCAKDNRTICWDTNTAEIVAELPAGNNWNFDVHWYPKIPGVISASSFDGKIGIYNIEGCSRYGVEENNFGTAPLKAPKWYKRPVGASFGFGGKLVSCHARAPAKGTSSILSEVFLHSLVTEQSLVSRTSEFEAAIENGDMTSLRGLCEKKSEETESEEEKETWGLLKIMFEEEGTSRTKLISHLGFTLPVAEKDQAVDGLSSDLNGIRLEDTAADALDLDDSNEAAAFAMDNGEDFFNNFPAKPDTPVSTSAKDFMPSDTDFSTKGEETQEMQEEEEESSDPVFDNAIQRALIVGDYKEAVDQCITANKMADALVIAHVGGTALWESTREKYLKTSSAPYMKVVSAMVNNDLRSLIYTRSHKFWKETLALLCTFAQGEQWTTLCDALASKLMAAGNTLAAVLCYICAGNVDRTVEIWSRSLANERDGRSYAELLQDLMEKTLVLALATGNKKFSASLCKLFESYAEILASQGLLTTAMKYLKVLDSGGLSPELSILRDRISLSAEPETNTTASGNTQPQSTMPYNQEPTQAQPNVLANPYDNQYQQPYTDSYYVPQVSHPPMQQPTMFMPHQAQPAPQPSFTPAPTSNAQPSMRTTFVPSTPPALKNADQYQQPTMSSHSFTGPSNNAYPVPPGPGQYAPSGPSQLGQYPNPKMPQVVAPAAGPIGFTPMATPGVAPRSVQPASPPTQQAAAQAAPAPATPPPTVQTADTSNVPAHQKPVIATLTRLFNETSEALGGARANTTKKREIEDNSRKLGALFVKLNSGDISKNAADKLAQLCQALDNNDFSTALQIQVLLTTSEWDECNFWLATLKRMMVKARQNVR | –
no binding | binds | XyG xylosyltransferase XXT5 (yeast two-hybrid fusion) (enzyme, UniProt Q9CA75 1-457) MGQDGSPAHKRPSGSGGGLPTTTLTNGGGRGGRGGLLPRGRQMQKTFNNIKITILCGFVTILVLRGTIGVGNLGSSSADAVNQNIIEETNRILAEIRSDSDPTDLDEPQEGDMNPNATYVLGPKITDWDSQRKVWLNQNPEFPSTVNGKARILLLTGSPPKPCDNPIGDHYLLKSVKNKIDYCRLHGIEIVYNMAHLDKELAGYWAKLPMIRRLMLSHPEVEWIWWMDSDALFTDILFQIPLARYQKHNLVIHGYPDLLFDQKSWIALNTGSFLLRNCQWSLDLLDAWAPMGPKGPIRDEAGKVLTAYLKGRPAFEADDQSALIYLLLSQKDTWMEKVFVENQYYLHGFWEGLVDRYEEMIEKYHPGLGDERWPFVTHFVGCKPCGSYADYAVERCLKSMERAFNFADNQVLKLYGFSHRGLLSPKIKRIRNETVSPLEFVDKFDIRRTPVETKPQN | –
